Whole data set: some 33,000 sequences, median “E-score (-0.5 to 0.5)” near -0.0059, cut for the highest 2% near 0.26. Some of the results follow.
molecular target: T1, Cin5 (UniProt P40917); assay: PBM E-score (8-mer binding enrichment) (E-score (-0.5 to 0.5)); higher = stronger / more preferred TF binding; conditions: protein concentration: 100 nM; construct: GST-full length
T1 sequence: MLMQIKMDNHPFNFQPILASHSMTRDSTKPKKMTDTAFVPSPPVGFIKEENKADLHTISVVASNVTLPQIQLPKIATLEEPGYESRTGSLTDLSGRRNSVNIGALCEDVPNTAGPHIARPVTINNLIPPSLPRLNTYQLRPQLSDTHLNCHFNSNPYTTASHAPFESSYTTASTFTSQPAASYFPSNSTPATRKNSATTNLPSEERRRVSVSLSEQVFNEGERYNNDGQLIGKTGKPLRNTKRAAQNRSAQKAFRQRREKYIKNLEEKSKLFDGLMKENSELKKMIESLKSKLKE
Summary of the method: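 Full-length yeast transcription factors or their DNA-binding domains, GST-tagged and expressed with PURExpress, were applied at about 100-200 nM to universal all-10-mer Agilent arrays. These arrays had been made double-stranded by primer extension on fresh or once-stripped slides. Detection used fluorescent anti-GST, normalisation used masliner, and E-scores for ungapped eight-base words pooled with reverse complements came from the Universal PBM Analysis Suite.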

Row | Sequence | PBM E-score
1 | GACTCTGA | -0.0473
2 | GTCGGGGA | 0.00829
3 | AAGGCCCC | -0.164
4 | GCAGGCGC | -0.0896
5 | ATTCGAAC | 0.157
6 | GCGCACGC | -0.12
7 | ACAATCAC | 0.0412
8 | AGGGAGCC | -0.352
9 | CTGGCTAA | -0.0403
10 | CAATGGTA | 0.101
11 | ACGAACAA | 0.0319
12 | AATTAGGG | -0.153
13 | ACTGTGTC | -0.0416
14 | GAAGAATA | 0.0158
15 | GCCACACA | 0.0511
16 | CACGCACA | 0.105
17 | AGTGTAAC | -0.0776
18 | CGGGGACG | -0.112
19 | CGGAGTAG | 0.0285
20 | CCGAGGAG | -0.213
21 | AGATAGCT | -0.138
22 | ACGAGGCG | 0.0373
23 | GACAATTA | 0.108
24 | ATACTCGG | 0.126
25 | AAGAATAC | 0.143

Row | Sequence | PBM E-score
26 | AGTGTTTC | 0.0887
27 | TGCTCACA | 0.0149
28 | AGTTGAAC | -0.0135
29 | ATGCTGTG | -0.052
30 | ATAACGTA | 0.313
31 | CACGAACA | 0.141
32 | ATGTTTGA | 0.00735
33 | TCCTGGCA | -0.114
34 | CATGTATA | 0.101
35 | CGCCGGGA | -0.128
36 | GCGCTCCC | -0.099
37 | GCGAATCA | 0.139
38 | ATGAGTGG | -0.0453
39 | CCAAGGCC | -0.21
40 | GCTTAGAC | -0.0654
41 | CAATAAAG | 0.0519
42 | ACGCGCAT | 0.00584
43 | CCCCTGGA | -0.235
44 | TAAGAGCA | 0.0709
45 | TCCGTGAA | -0.139
46 | CTACTGGA | -0.00915
47 | AGCGAACA | 0.162
48 | ACGATCGC | 0.19
49 | AGGGACAA | -0.0892
50 | ACCCCCTA | -0.47

Row | Sequence | PBM E-score
51 | GTAAAGGA | 0.00639
52 | CACTTGAG | 0.0203
53 | AAATGATT | 0.294
54 | AGATATCC | 0.167
55 | ATGTCAGA | 0.114
56 | AGGTCTCG | -0.217
57 | GTTTCGAA | 0.0691
58 | AGCCCCCA | -0.432
59 | TCCTTGCA | -0.145
60 | GTACGAAC | 0.0851
61 | GCAGAACA | 0.154
62 | GACCAGAA | 0.0134
63 | ACCAACCG | 0.0498
64 | GCGAGGCC | -0.172
65 | ACGAATAA | 0.144
66 | GCCGGGCC | -0.256
67 | GGGCCTTA | -0.106
68 | AGGGGAGA | -0.286
69 | AGTGTACA | -0.0933
70 | TTTTAAAA | -0.0381
71 | CGCAGTCC | -0.221
72 | GAGGCTTA | 0.169
73 | CTTCCAAC | 0.00872
74 | GTGGCTTA | 0.0222
75 | CGGTAGGC | -0.195

Row | Sequence | PBM E-score
76 | CGTAGCAA | 0.0114
77 | GAGCTTTA | -0.0441
78 | GCGGGACC | -0.0947
79 | TAGACGGA | 0.0538
80 | AAGCTGCT | 0.0668
81 | ACACGTAG | -0.151
82 | ACCTCACT | 0.0509
83 | CCTCGAGA | 0.0341
84 | ACACATAA | 0.274
85 | CCCCTTAA | -0.269
86 | TCTCGGCA | -0.0987
87 | AACGGGAG | -0.0138
88 | TCACGCGA | 0.0021
89 | GCACGCAC | -0.302
90 | GTCCCGGA | -0.0399
91 | CAAGACGG | -0.0852
92 | ACCGAATA | 0.00263
93 | ACCATCGT | -0.12
94 | CAGATGGG | -0.127
95 | GAGTTTTA | 0.0503
96 | AGCACAAA | 0.175
97 | CACCATGC | -0.117
98 | CCTAGTAG | -0.249
99 | ATTGATAA | 0.157
100 | CCCGACGA | -0.072

Row | Sequence | PBM E-score
101 | CCTGGTAA | 0.0322
102 | CGGCGTTC | -0.179
103 | GCGGAATA | 0.154
104 | GCATGAAC | 0.129
105 | CGCGTCTC | 0.0382
106 | TCAGGACA | -0.00718
107 | CATCGCAC | -0.127
108 | GACCGTTA | 0.0179
109 | GCGGTAGA | -0.0884
110 | CGCATACA | 0.0927
111 | TATACAGA | 0.22
112 | ACTCTTAT | 0.209
113 | GGCGTTCA | -0.124
114 | ACCTAAAA | 0.0709
115 | ACCCACTG | 0.064
116 | CAGTACCC | -0.152
117 | TATTACCA | 0.173
118 | CCAGTAGG | -0.17
119 | CTCCTAGC | -0.259
120 | ACGAATAG | 0.0703
121 | ACTCTCCG | -0.0673
122 | ACACTACA | 0.138
123 | TCCCGCAA | 0.105
124 | CGTGACGA | 0.0102
125 | GATCACGC | 0.197

Looked up above.
PBM E-score, CGGGGACG is entered as -0.112
PBM E-score, AACGGGAG is entered as -0.0138
PBM E-score, AATTAGGG is entered as -0.153
PBM E-score, AGCCCCCA is entered as -0.432
PBM E-score, CAATGGTA is entered as 0.101
PBM E-score, CGCAGTCC is entered as -0.221
PBM E-score, AAATGATT is entered as 0.294

Carrying on:

Row | Sequence | PBM E-score
126 | ACGGAGGC | -0.257
127 | GGAGTTGA | -0.0713
128 | CGAGTCGC | -0.247
129 | AAGCGCAT | 0.162
130 | GACAACAC | 0.0247
131 | ACCAATTA | 0.266
132 | TATAGTAA | 0.324
133 | CCCCCCTC | -0.465
134 | TAGTACGA | 0.0374
135 | CGATCCCC | -0.159
136 | AGCGGCCA | -0.267
137 | AAATCACA | 0.00243
138 | AAAATAGA | 0.187
139 | ATTCAGTC | -0.0704
140 | GATGCTAC | 0.032
141 | CCCGTGCC | -0.294
142 | ACGAGAGA | -0.0604
143 | AGCTACAA | 0.0604
144 | ATGATGGC | 0.0266
145 | AAAATCTA | -0.0459
146 | CTATGAGA | -0.0703
147 | AAACTCTA | -0.00419
148 | CAGGTTAA | -0.00727
149 | CAGTTATC | -0.0632
150 | AGTGCTGC | -0.118

Row | Sequence | PBM E-score
151 | AACCCATA | 0.29
152 | AGCTCAAC | 0.0126
153 | AGTGACTG | -0.0233
154 | GCTCCACC | -0.317
155 | ACCCCTCG | -0.167
156 | ATCGCCGG | -0.0423
157 | ACCGTCGG | -0.256
158 | GTTTTTAA | 0.0998
159 | ACATGATG | -0.024
160 | AATTACGG | 0.141
161 | ATAGAATC | -0.0878
162 | AATGAAAT | 0.233
163 | AACTCGGT | 0.0563
164 | TCTCTGAA | -0.143
165 | AGTATCCC | 0.0604
166 | AACATTGT | 0.085
167 | GCTCTACC | -0.288
168 | AAAAAGAA | 0.141
169 | AGCCCGGC | -0.139
170 | AAAGTACT | 0.004
171 | CCCACAGC | -0.192
172 | CATCCACC | 0.14

A second format for part of the listing above:
Row,Sequence,PBM E-score
54,AGATATCC,0.167
169,AGCCCGGC,-0.139
